Measured values from PubChem BioAssay AID493014 (National Center for Advancing Translational Sciences (NCATS), 2011).
Among all 340,000 compounds or so, about 170 (0.05%) were called active. Inconclusive means that the source gave no clear call. Such entries were picked first, then a sample of the others. The call rests on the fitted dose curve; in most records, active means well fitted inhibition curve with a large enough effect in the signal ratio, with a control signal flat (not every such curve was filed as active); inconclusive means small, poorly fitted or top-dose-only effect, or effect the other way, or a change in a side signal; inactive means flat fitted curve, though single readings scatter; the % refers to the signal ratio. Potencies of inconclusive entries are doubtful fits and often do not repeat.

assay: qHTS Assay to Find Inhibitors of Chronic Active B-Cell Receptor Signaling; conditions: ABC-DLBCL IkBa-CBG/CBR reporter, luminescence ratio (green luciferase fused to IkBa over red control in TMD8 lymphoma cells), 4 h; activity change, negative = inhibition: at 46.1 µM (top of the series);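 on activity change, negative = inhibition: plate controls were basal doxycycline-induced cells for no effect and cells given 10 µM MG132 for full effect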
Summary of the method: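 Compounds up to 46 uM were incubated four hours with TMD8 cells whose green CBG68 luciferase is fused to IkappaBalpha; red CBR luminescence normalised the signal, and concentration-effect curves were fitted to fusion, red and ratio data.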
Potency means the concentration at half of the fitted maximal effect.

SMILES	activity change, negative = inhibition	Potency
Cc1c(N=Nc2c(O)n(-c3ccc(Br)cc3)c(=O)[nH]c2=O)c(=O)n(-c2ccccc2)n1C	inactive	
C=CCn1c(O)c(C(C)=NC2CCN(Cc3ccccc3)CC2)c(=O)[nH]c1=O	inactive	
COc1cccc(Nc2nnc(SCC(=O)N3CCOCC3)s2)c1	inconclusive: -21.9%	
COC(=O)C1=C(c2cccc(OCc3ccccc3)c2)C[C@@H]2CC[C@H]1N2C(=O)NCCCc1ccccc1	inconclusive: -9.73%	
COc1ccc(C2=NCC(=S)Nc3ccc(Cl)cc32)cc1Cl	inactive	
COC(=O)CC1(CC(=O)OC)C(=O)N(c2ccccc2)C(=O)N(c2ccccc2)C1=O	inactive	
COCCCn1c(N)c(C(=O)Nc2ccccc2)c2nc3ccccc3nc21	inconclusive: 21%	
CC(=O)Nc1ccc(C(c2c(O)c3ccccc3oc2=O)c2c(C)n(C)n(-c3ccccc3)c2=O)cc1 (stereo not given)		inconclusive: 20 µM [falling, partial curve, poor fit]
Cc1cnc(NC(=O)CN2CCN(c3ccccn3)CC2)s1		inconclusive: 35.5 µM [rising, single point]
CCOc1cc2c(cc1OCC)-n1cccc1C(c1cc(C)c(OC)cc1C)NC2 (stereo not given)	inconclusive: -11.7%	
COC(=O)C1=Nc2ccccc2/C1=C\c1c(O)n(-c2ccc(OC)cc2)c(=O)[nH]c1=O	inconclusive: 7.32%	
Cc1cccnc1NC1=NCC(C)S1 (stereo not given)	inconclusive: 6.14%	
O=C(Oc1ccc(Cl)c2cccnc12)N1CCCCCC1	inconclusive: 3.56%	
COC(=O)C1=C(c2ccc(OC(F)(F)F)cc2)C[C@@H]2CC[C@H]1N2C(=O)NCc1ccc(F)cc1	inconclusive: 3.18%	
CCOc1cc2c(cc1OCC)-n1cccc1C(c1cccc(F)c1F)NC2 (stereo not given)	inconclusive: -15.9%	
Cc1cc(OC(=O)N(C)C)nc(SCc2c(Cl)cccc2Cl)n1		inconclusive: 35.5 µM [falling, single point]
C/C=C1\NC(=O)[C@@H](NC(=O)[C@H](CCc2ccc(O)cc2)NC(=O)[C@H](C)NC(=O)[C@H](O)CO)[C@@H](C)OC(=O)[C@H](C(C)C)NC(=O)[C@H](Cc2ccc(O)cc2)N(C)C(=O)[C@H](Cc2ccccc2)N2C(=O)C(CC[C@H]2O)NC1=O (stereo not given in full)	inconclusive: 0.0388%	
CN1C(=O)NC(=O)/C(=C\C=C\c2ccccc2[N+](=O)[O-])C1=O		inconclusive: 17.8 µM [falling, partial curve, poor fit]
CCCCCCC[n+]1ccc(-c2cc[n+](CCCCCCC)cc2)cc1	inactive	
O=c1[nH]c(=S)n(-c2ccc(Cl)cc2)c(O)c1/C=N/N1CCOCC1	inconclusive: -13%	
Cc1ccc(/C=C2\C(=O)NC(=S)N(c3ccc(F)cc3)C2=O)o1	inactive	
Cc1ccc(C(=O)Nc2ccccc2C(=O)NC(Cc2ccccc2)C(=O)O)cc1 (stereo not given)		inconclusive: 17.8 µM [falling, single point]
CCN1CCN(c2nc3ccccc3s2)CC1	inconclusive: 14.2%	
Cn1cc(C(=O)c2ccccc2)c2ccccc21	inactive	
Cc1cccc(CCNCc2cc3ccc(C)cc3[nH]c2=O)c1	inconclusive: -20.7%	

A second format for 3 compounds above:
SMILES | activity change, negative = inhibition | Potency
COC(=O)CC1(CC(=O)OC)C(=O)N(c2ccccc2)C(=O)N(c2ccccc2)C1=O | inactive | 
CC(=O)Nc1ccc(C(c2c(O)c3ccccc3oc2=O)c2c(C)n(C)n(-c3ccccc3)c2=O)cc1 (stereo not given) |  | inconclusive: 20 µM [falling, partial curve, poor fit]
Cc1cnc(NC(=O)CN2CCN(c3ccccn3)CC2)s1 |  | inconclusive: 35.5 µM [rising, single point]

Additional entries

SMILES	activity change, negative = inhibition	Potency
O=C1NC(=O)C(=Cc2csc3ccccc23)C(=O)N1		inconclusive: 35.5 µM [falling, partial curve, poor fit]
CC(C)=CCOc1c2occc2cc2ccc(=O)oc12	inactive	
CCCCn1c(NC(=O)c2ccco2)c(C(=O)OCC)c2nc3ccccc3nc21	inconclusive: 5.69%	
CCOc1cc(C=C2C(=O)NC(=O)NC2=O)ccc1OS(=O)(=O)c1ccccc1	inconclusive: -19.3% [cytotoxic]	
COc1ccccc1OCC(=O)Nc1ccc(Cl)cc1C(=O)c1ccccc1	inconclusive: 9.41%	
Cn1c(O)c(C=NCCCCCCCCCCC(=O)O)c(=O)n(C)c1=O	inconclusive: -6.28%	
Cc1ccc(-c2nn(Cc3ccccc3)cc2C=O)cc1	inconclusive: -6.43%	
Cc1[nH]n(-c2ccccc2)c(=O)c1C(c1ccc([N+](=O)[O-])cc1)c1c(C)[nH]n(-c2ccccc2)c1=O		inconclusive: 1.64 µM [rising, full curve]
O=c1[nH]c(=O)n(-c2ccccc2F)c(O)c1C=NCCC1=CCCCC1		inconclusive: 6.31 µM [rising, partial curve, poor fit]
Cc1cccc(OP(=O)(Nc2cccnc2)Oc2cccc(C)c2)c1		inconclusive: 29.1 µM [falling, single point]
O=c1c2ccccc2nc(/C=C/c2ccccc2)n1-c1ccccc1F	inconclusive: -1.56%	
COc1cc2c(cc1OC)-c1c(OC)c(OC)c(OC)c3ccnc(c13)C2=O	inactive	
CN1C(=O)C(=Cc2sc(=O)n(-c3ccccc3)c2N(C)C)C(=O)N(C)C1=O		inconclusive: 35.5 µM [rising, single point]
O=C1NC(=O)C(CCc2ccncc2)(Cc2cccc(Cl)c2Cl)C(=O)N1c1ccc(Br)cc1 (stereo not given)	inconclusive: 4.84%	
Nc1ccc2c(c1)Cc1ccccc1-2	inactive	
Cc1[nH]c2ccccc2c1CCCNC1CCCCC1	inactive	
O=C(c1[nH]nc2c1CCc1ccccc1-2)N1CCN(Cc2ccc3c(c2)OCO3)CC1	inconclusive: -14.5%	
CCC(=O)CC(c1ccccc1)c1c(O)c2ccccc2sc1=O (stereo not given)	inconclusive: 8.9%	
COc1ccc(O)c(CN2CCCC(C(=O)c3ccccc3SC)C2)c1 (stereo not given)	inactive	
CC1=CC(=O)C2=C(C)CC(O)C3C(C)C(=O)OC3C12 (stereo not given)	inconclusive: -8.81%	
COc1ccc2c(c1)CC1(CN2C)C(=O)NC(=O)N(CCc2ccccc2)C1=O (stereo not given)	inactive	
O=c1[nH]c(CN2CC=C(c3ccccc3)CC2)nc2cc(C(F)(F)F)ccc12	inactive	
CCc1ccc(CNCCc2ccc(F)cc2)cc1	inactive	
CCCCC(=O)N/N=C/c1c(O)n(Cc2ccc(F)cc2)c(=O)[nH]c1=O	inconclusive: 14.1%	
COc1cc(C(c2c(O)c3ccccc3oc2=O)c2c(C)n(C)n(-c3ccccc3)c2=O)ccc1O (stereo not given)		inconclusive: 23.1 µM [falling, partial curve]
